# Results of single-concentration screens

From ChEMBL document CHEMBL3988442, “University of Dundee, Small-Polar-MMV Screening Library” (2021).

The filed quantity is “Percent Effect” (%). The record does not define 0% and 100%; most values in the screen are far below 50% and negative numbers occur (in some assays of this library far below -100). Compounds were drawn at random from those tested, without regard to their results.

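Whole-parasite assay of Trypanosoma brucei over 72 hours; the read-out is not stated. Compounds at 30 µM. Direction is inferred from retests: higher values go with stronger inhibition. Values scatter widely below zero; nearly all retest evidence comes from the higher of the two concentrations used. Size under these conditions: about 64,000 compounds, about 940 of them at 50% or above in at least one test.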

| Compound | Percent Effect |
|---|---|
| `Cc1ccc(-c2cc(-c3nc(CN4CCN(C)CC4)no3)[nH]n2)s1` | 7.181 |
| `O=C(O)C(F)(F)F.O=C(O)C(F)(F)F.[H][C@@]12CN(Cc3ccsc3)CCC[C@]1(C(=O)O)CN(CCOC)C2` | -12.17 |
| `Cc1nccn1-c1cccc(C2CCCN2S(=O)(=O)c2cn(C)cn2)n1` (centres unmarked) | -36.76 |
| `Cc1cc(NC(=O)NCCOc2ccc(Cl)cn2)no1` | 2.445 |
| `CCn1cnnc1C1CCN(C(=O)c2ccc3cc[nH]c3c2)CC1` | -26.65 |
| `Cc1ccn(-c2ccccc2NCc2ncc[nH]2)n1` | -50.4 |
| `CCc1noc(C(C)N2CCN(S(=O)(=O)N3CCCC3)CC2)n1` (centres unmarked) | 6.447 |
| `CC[C@@H](NC(C)=O)C(=O)NCc1cccnc1Oc1ccccc1OC` | -14.97 |
| `c1ccc(N2CCC(OCC3CCCCO3)CC2)nc1` (centres unmarked) | -91.25 |
| `CCCc1n[nH]c(C2CN(C(=O)c3n[nH]c4ccccc34)CCO2)n1` (centres unmarked) | -24.2 |
| `COc1cc(C(=O)N(C)C(C)Cc2cc(C)ccn2)ccn1` (centres unmarked) | -61.7 |
| `CC1CN(Cc2cccc(C#N)c2)CCN1c1ccc2nncn2n1` (centres unmarked) | -20.22 |
| `CC1(Cc2ccc(F)cc2)Cc2cc(C(=O)NCCO)ccc2O1` (centres unmarked) | 0.4424 |
| `O=C(O)C(F)(F)F.[H][C@]12CC(=O)N(CC3CC3)[C@@]1([H])CCN2Cc1cccc(C)n1` | -7.714 |
| `CC(C)c1nc(CN2CCN(C(C)c3nc(C4CC4)no3)CC2)no1` (centres unmarked) | -7.717 |
| `N#Cc1cccc(NC2CC(=O)N(C3Cc4ccccc4C3)C2)n1` (centres unmarked) | -22.96 |
| `CCc1nc(CN(C)C2CCN(Cc3ccc(C#N)cc3F)C2)no1` (centres unmarked) | -43.29 |
| `CCOC(=O)N1CCCC2(CCCNC2)C1.Cl` (centres unmarked) | -12.28 |
| `Cc1nc(O)cc(C2CCCN2CCO)n1` (centres unmarked) | -4.769 |
| `Cc1nn(CC(F)F)c2c1c(C(F)F)cc(=O)n2CC(=O)O` | -21.18 |
| `O=C(CNC(=O)c1ccoc1)NCCOc1ccc2c(c1)CCC2` | -9.618 |
| `CCOc1ccc2[nH]c(=O)c(CN(C)CCc3cn[nH]c3)cc2c1` | -10.64 |
| `CCOC[C@@H]1CCC[C@@]12CN(Cc1cccnc1)CCO2` | -123.3 |
| `c1ccc2sc(N3CCN(c4ncnc5c4CCC5)CC3)nc2c1` | -20.16 |
| `Cc1noc(C)c1CN1CCN(Cc2ccncc2)c2ncccc2C1.O=C(O)C(F)(F)F.O=C(O)C(F)(F)F.O=C(O)C(F)(F)F` | 43.91 |
| `COCc1cccc(S(=O)(=O)N2CCSCC2)c1` | -7.174 |
| `Cc1cnc(C(=O)N2CCNCC2C(=O)NCc2ccncc2)cn1` (centres unmarked) | -20.43 |
| `Cc1noc(C)c1CNCc1c(C(C)C)nn(C)c1N1CCOCC1` | -16.9 |
| `CCn1c(-c2ccccc2)nn(CC(=O)NCCc2c[nH]cn2)c1=O` | -29.41 |
| `CN(C)C1(CNc2ncc(Br)cn2)CCOCC1` | 3.41 |
| `CCC(C(=O)NCc1ccncc1)N(c1cccc(Cl)c1)S(C)(=O)=O` (centres unmarked) | -4.833 |
| `CCn1nc(C)c2nc(C(C)C)nc(NCCc3ccc(O)cc3)c21` | 39.22 |
| `CC(C)(C)C(=O)Cn1nc(C2CC2)cc(C(F)(F)F)c1=O` | -20.76 |
| `Cn1nccc1C(=O)N1Cc2ccccc2OC2(CCOCC2)C1` | -22.44 |
| `CCN(CC(=O)NC)C(=O)Cc1nc(-c2ccco2)oc1C` | 25.43 |
| `Cc1ccc(C(=O)NS(C)(=O)=O)cc1I` | -47.55 |
| `CCS(=O)(=O)N1CCCC(c2nccn2Cc2ccccn2)C1` (centres unmarked) | -4.113 |
| `CN(C)C(C(=O)N1CCC(CCO)CC1)c1ccccc1F` (centres unmarked) | -27.31 |
| `CS(=O)(=O)c1ccc(CN2CCCCC2c2cccc(F)c2)cc1` (centres unmarked) | -2.75 |
| `CCc1nccc(CN2CCC(CNC(=O)[C@H]3CC[C@H](C)CC3)C2)n1` (some centres unmarked) | -24.35 |
| `O=C(c1csc(-c2ccccn2)n1)N1CCCC1Cn1cccn1` (centres unmarked) | -13.55 |
| `Cc1nc(C)n(CC2CCCN2CCC(=O)NC2CCCC2)n1` (centres unmarked) | -11.8 |
| `COCc1cc(CC2(NC3CCCCC3)COC2)no1` | -23.75 |
| `COCCN1C(=O)CCC12CCN(c1ncc(F)cn1)CC2.O=C(O)C(F)(F)F` | -28.86 |
| `O=C(c1csc(C2CC2)n1)N1CCCCC1Cn1cccn1` (centres unmarked) | -8.983 |
| `COCC(=O)N1C[C@@H](O)[C@H](N2CCN(c3ccccc3)CC2)C1` | -2.095 |
| `O=S(=O)(NCCCn1cncn1)c1ccc2c(c1)CCCC2` | -35.6 |
| `CCC[C@H]1CN(Cc2nccn2C)C[C@@H]1NC(=O)C1(COC)CCC1` | -27.26 |
| `O=c1c2sccc2ncn1Cc1cc(C2CC2)[nH]n1` | -8.408 |
| `CC(O)CN1CCC(CNCc2cn(-c3ccccc3)nn2)CC1` (centres unmarked) | -21.57 |
| `O=C1CC(NCc2ccncc2)CN1Cc1cccc(F)c1` (centres unmarked) | -13.68 |
| `Cc1ccoc1C(=O)NC1CCN(Cc2ccccc2F)CC1` | 4.829 |
| `N#CCCN(C(=O)CN1CCCC1Cc1ccccc1)c1ccccc1` (centres unmarked) | 8.598 |
| `COc1cccc2c1OCC(C(=O)NC1CCN(S(C)(=O)=O)CC1)C2` (centres unmarked) | 11.4 |
| `NC(=O)c1ccc(=O)n(Cc2cc(Br)ccc2Cl)n1` | 12.76 |
| `Cc1nn(C)c2cnn(CC(=O)NCc3ccc4c(c3)OCO4)c12` | -30.13 |
| `Cc1cc(C)n(CCN(C)c2ccc(-c3nc(C4CC4)no3)cn2)n1` | -18.92 |
| `[H][C@@]12CCC(=O)N(CCc3c[nH]cn3)[C@]1([H])CCN(Cc1nccn1C)C2` | -27.82 |
| `CNCc1ccc([C@@H]2CN(C)C[C@H]2C(N)=O)cc1.Cl` | -7.095 |
| `COc1cccc(NC(=O)NC(C)c2ccc3c(c2)CC(=O)N3)c1` (centres unmarked) | -20.84 |
| `CC(=O)N(Cc1noc(C2CC2)n1)C1CCN(CC2CCOCC2)C1` (centres unmarked) | 1.026 |
| `CC(C)n1nc2c(cc1=O)CN(c1ncnc3sccc13)CC2` | 7.02 |
| `O=C(NC1CC1)c1nc2c(o1)CN(c1ncccn1)C2` | -48.6 |
| `O=C(O)C(F)(F)F.O=C(O)C(F)(F)F.O=C1COC2(CCN(Cc3cccs3)CC2)CN1c1cccnc1` | -14.7 |
| `Cc1cc(NC(=O)N2CCOC(C(N)=O)C2)ccc1Br` (centres unmarked) | -3.776 |
| `Cc1cn2nc(N3CCCC3C(=O)N3CCOCC3)sc2n1` (centres unmarked) | -19.23 |
| `CC(C)(C)C(O)CN1CCN(CC(=O)NC(C2CC2)C2CC2)CC1` (centres unmarked) | -49.48 |
| `CN(Cc1cccs1)S(=O)(=O)c1ccc(C(F)(F)F)nc1` | -15.08 |
| `CCN(CCC(=O)OC)S(=O)(=O)c1cnc2c(c1)c(C)nn2C` | -6.044 |
| `CS(=O)(=O)N1CCC2(CCCN(Cc3ccccn3)C2)CC1.O=C(O)C(F)(F)F` | -46.13 |
| `CN(C)CCN1Cc2ncn(C)c2C(COCC(=O)N(C)C)C1` (centres unmarked) | -31.44 |
| `COc1cc(Oc2ccc(C#N)cn2)ccc1CN1CCCC1` | -61.08 |
| `COCC1CN(Cc2cc(C)on2)Cc2cn(CC3CC3)nc21` (centres unmarked) | -4.509 |
| `CC(=O)N1CCN(C(=O)CNc2ccc3sccc3c2)CC1` | -18.15 |
| `Cn1cccc1-c1cc(C(=O)N2CCCC2c2cccnc2)[nH]n1` (centres unmarked) | 20.17 |
| `CCNC(=O)N1CCC(NC(=O)NCCc2cc(F)cc(F)c2)C1` (centres unmarked) | -30.54 |
| `O=C(Nc1ccc(F)cc1)C1CNCCN1C(=O)CSc1ccncc1` (centres unmarked) | -38.21 |
| `COc1ncc(-c2cc(NCCN(C)C)nc3[nH]ccc23)c(OC)n1` | -30.14 |
| `O=C(O)C(F)(F)F.O=C1CC[C@]2(CC[C@@H](NC(=O)NCc3cccnc3)CC2)N1` | 11.33 |
| `COC[C@]1(O)CCN(Cc2ccc(N(C)C)nc2)CC1(C)C` | -13.15 |
| `CC(C)c1nc(CN(C)C(=O)c2cn3ccsc3n2)cs1` | -40.3 |
| `c1coc(-c2nc(CN3CCOC(Cn4cccn4)C3)cs2)c1` (centres unmarked) | -46.79 |
| `O=C(Nc1cccnc1)c1ccc(-n2cncn2)nn1` | -28.14 |
| `COc1cc(Br)cc(CNC2CCCNC2=O)c1O` (centres unmarked) | -2.55 |
| `CN(C)c1ncccc1CNC(=O)NCCN(C)C1CCCC1` | -26.87 |
| `O=C(c1coc2ccccc12)N1CCCC(O)(CO)CC1` (centres unmarked) | -19.85 |
| `OC(CNc1cncc(OCc2ccccc2)n1)c1ccco1` (centres unmarked) | -23.98 |
| `CC(C)(C)C(O)CN1CCN(CCOCC(F)(F)F)CC1` (centres unmarked) | -3.24 |
| `CCC(CO)NCc1ccc(-c2ccccc2)o1.Cl` (centres unmarked) | -15.67 |
| `O=C(O)c1cn(CC2CCCN(c3cnc4ccccc4n3)C2)nn1` (centres unmarked) | -9.547 |
| `Cc1nccc(N2CCC(=O)N(Cc3ccc(F)cc3)C(C(C)C)C2)n1` (centres unmarked) | 39.74 |
| `COCC(C)NS(=O)(=O)c1ccc(Br)cn1` (centres unmarked) | -2.592 |
| `COCC(NC(=O)c1ccoc1C)c1cccc(C(F)(F)F)c1` (centres unmarked) | -16.77 |
| `CCS(=O)(=O)CC(=O)N1CCCC1c1noc(C2CC2)n1` (centres unmarked) | -11.17 |
| `CC(C)CC(NCc1cscn1)c1ccccn1` (centres unmarked) | -15.1 |
| `c1cnnc(N2CCCC2CNc2cnc3ccccc3n2)c1` (centres unmarked) | -5.496 |
| `Cc1[nH]c(-c2ccccc2)nc1C(=O)N1CC[C@H](CO)[C@@H](O)C1` | -31.8 |
| `Cc1ccc(S(=O)(=O)N2CCCCC(N3CCN(C)CC3)C2)cc1F` (centres unmarked) | -27.47 |
| `O=C(CN1CCCc2c(F)cc(Br)cc21)N1CCN(C(=O)C2CC2)CC1` | -4.529 |
| `COC(=O)c1ccccc1NC(=O)c1nc2ccccc2n(C)c1=O` | 31.91 |